The target in the test is Muscarinic acetylcholine receptor M4 (Rattus norvegicus) (UniProt P08485). Nature of the test: PubChem AID 1757. To be noted: rat M4 membranes, [3H]NMS radioligand competition binding; at 30 µM (top of the series). On the technique in general: Loss of bound radioactivity is the signal in a displacement assay; it reports binding, not function.

Amino acid sequences for entries named in this document (tags omitted).
UniProt P08485, whole entry, looked up: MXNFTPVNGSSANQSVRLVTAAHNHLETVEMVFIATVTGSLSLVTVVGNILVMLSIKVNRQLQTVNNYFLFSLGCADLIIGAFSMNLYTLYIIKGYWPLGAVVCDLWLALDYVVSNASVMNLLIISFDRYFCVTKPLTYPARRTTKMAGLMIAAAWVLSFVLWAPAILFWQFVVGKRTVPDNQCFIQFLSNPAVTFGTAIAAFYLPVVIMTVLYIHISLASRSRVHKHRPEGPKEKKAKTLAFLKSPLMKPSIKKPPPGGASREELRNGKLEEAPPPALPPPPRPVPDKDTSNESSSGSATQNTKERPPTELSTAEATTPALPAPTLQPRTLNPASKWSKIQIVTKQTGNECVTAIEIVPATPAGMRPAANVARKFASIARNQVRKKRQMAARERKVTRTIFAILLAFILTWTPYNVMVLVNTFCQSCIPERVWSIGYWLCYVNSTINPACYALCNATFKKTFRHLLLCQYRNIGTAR

The list shows a part of the results. Results with a measured potency or affinity are listed apart. The source made no clear call on entries shown without one.

Take `CCOC(=O)N1CCC(NCCNC(=O)c2cccs2)CC1`: the specific [3H]NMS binding was found to be 89.9.
